At least one structure is not confirmed: it was looked up by name or label, or the drawing left a doubt.
Biological target: T1, human ATP8B1 (Homo sapiens, UniProt O43520)
T1 sequence (O43520 1-1251): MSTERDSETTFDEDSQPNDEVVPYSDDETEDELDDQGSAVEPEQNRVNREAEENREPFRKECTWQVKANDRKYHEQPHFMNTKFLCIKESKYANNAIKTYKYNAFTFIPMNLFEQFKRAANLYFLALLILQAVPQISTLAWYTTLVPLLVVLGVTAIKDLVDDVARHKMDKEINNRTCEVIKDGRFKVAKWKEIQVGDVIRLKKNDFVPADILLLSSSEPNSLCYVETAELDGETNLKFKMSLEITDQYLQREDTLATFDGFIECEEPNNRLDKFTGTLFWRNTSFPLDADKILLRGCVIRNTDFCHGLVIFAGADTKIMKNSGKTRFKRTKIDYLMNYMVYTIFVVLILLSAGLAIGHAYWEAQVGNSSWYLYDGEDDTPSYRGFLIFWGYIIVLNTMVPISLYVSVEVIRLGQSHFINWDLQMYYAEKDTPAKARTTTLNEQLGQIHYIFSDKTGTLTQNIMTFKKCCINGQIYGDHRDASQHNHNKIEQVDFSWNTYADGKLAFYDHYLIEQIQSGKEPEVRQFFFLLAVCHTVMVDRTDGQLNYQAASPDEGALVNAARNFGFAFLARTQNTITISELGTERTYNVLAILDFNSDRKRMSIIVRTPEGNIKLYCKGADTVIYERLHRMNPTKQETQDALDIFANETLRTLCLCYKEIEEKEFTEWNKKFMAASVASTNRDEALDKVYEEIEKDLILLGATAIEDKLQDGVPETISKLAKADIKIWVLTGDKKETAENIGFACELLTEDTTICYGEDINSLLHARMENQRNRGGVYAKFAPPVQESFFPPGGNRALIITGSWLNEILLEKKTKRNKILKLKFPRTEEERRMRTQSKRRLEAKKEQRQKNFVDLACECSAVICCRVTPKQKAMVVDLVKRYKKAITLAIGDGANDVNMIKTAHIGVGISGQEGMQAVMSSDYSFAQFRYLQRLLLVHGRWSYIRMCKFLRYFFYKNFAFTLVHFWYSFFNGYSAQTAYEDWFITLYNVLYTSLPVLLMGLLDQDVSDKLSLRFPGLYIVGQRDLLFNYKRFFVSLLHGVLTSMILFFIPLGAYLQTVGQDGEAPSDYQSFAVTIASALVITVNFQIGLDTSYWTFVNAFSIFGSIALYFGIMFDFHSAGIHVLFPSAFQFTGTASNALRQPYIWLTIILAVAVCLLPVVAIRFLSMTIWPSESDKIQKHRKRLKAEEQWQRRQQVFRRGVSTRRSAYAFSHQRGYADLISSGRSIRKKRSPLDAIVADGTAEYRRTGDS
Assay: Phospholipid-stimulated ATPase activity of full-length ATP8B1
Type: biochemical
Details: read-out: EC50 of phospholipid-stimulated activity of ATP8B1, concentration-dependent
Protocol: FIG. 8E is a bar graph showing ATPase activity of ATP8B1 in presence of various lipids (300 µM).
FIG. 8F is a graph showing phospholipid concentration-dependent ATPase activity of ATP8B1. Graph representing data points of three independent experiments, values are mean±SD and fitted by a non-linear dose-dependent curve.
ATP8B1 deletion may affect PIP2 translocation due to changes in membrane properties or by indirectly influencing the activity of other proteins involved in lipid trafficking. To determine if ATP8B1 can directly flip PIP2, a cell-free system was reconstituted. The GST-tagged human ATP8B1 protein was cloned in a baculovirus, followed by transduction of insect Sf9 cells, and expression was confirmed by western blot using anti-GST antibody.
Next, we utilized reconstituted ATP8B1-proteoliposomes with NBD-labeled phospholipids and sodium dithionite quenching assay to measure phospholipid flip (FIG. 8G), as described before. A marked decrease in the fluorescence intensity of NBD-PIP2 was observed following dithionite quenching of ATP8B1 containing proteoliposomes vs. control liposomes, with ˜12% NBD-PIP2 flip in 5 min, ˜22% NBD-PIP2 flip in 30 min, and ˜27% NBD-PIP2 flipped in 60 min (FIG. 8H, 8I).

**Q.** `CCCCCCCCCCCCCCCCCC(=O)OC[C@H](COP(=O)(O)OC[C@H](N)C(=O)O)OC(=O)CCCCCCCCCCCCCCCCC` [PS, phosphatidylserine] was tested. Which EC50 did it give?
**A.** 283 ± 33.3 µM

Source: patent US20250340885A1, “COMPOSITIONS AND METHODS FOR MODULATING CONDITIONS ASSOCIATED WITH ALTERED ATP8B1 FUNCTION” (CLEVELAND STATE UNIVERSITY, priority 2024, published 2025)
